Record: PubChem BioAssay AID504793 (Drosophila RNAi Screening Center, 2011)

- Screen: 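Whole-genome screen for parts of the DNA damage checkpoint at G2/M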 (primary screen)
- Cells: Drosophila S2R+ cells
- Reagent: long dsRNA against Drosophila genes, about 0.25 µg dsRNA per well
- Duration: 4 days of dsRNA, then 4 hours of drug before read-out
- Treatment: doxorubicin 0.5 µM for 4 hours to cause double-strand breaks, in cells also given a low, harmless dose of dsRNA against nbs to sensitise the assay
- Measured: 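Mitotic index as the number of phospho-histone H3-positive cells in each well following doxorubicin, given as raw counts without normalisation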
- Direction: mitotic cells: higher = more cells in mitosis, weaker G2 arrest
- Hit rule: 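Genes are called active only when high mitotic counts were reproduced with independent dsRNAs and mitosis was checked for delay without damage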
- Meaning of the calls: active = confirmed in follow-up tests; inactive = not confirmed
In all, the deposit lists about 23,000 reagents; below is an unselected part of those that have a named target and a result. Over the whole deposit, 62 (0.27%) are marked active. 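Calls come from follow-up tests whose scores are not deposited, so confirmed genes may have low counts here; counts are not normalised per plate.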 Raw values vary from plate to plate and are shown uncorrected. A plus sign joins genes that one reagent is predicted to hit.

| target | amplicon | mitotic cells, replicate 1 | Outcome |
| --- | --- | --- | --- |
| CG31464 (GeneID 318749) | DRSC14345 | 4 | inactive |
| CG42380 + CG42379 + PIG-M + 1 more | DRSC03884 | 3 | inactive |
| CG42380 + CG42379 + PIG-M + 1 more | DRSC04580 | 6 | inactive |
| ATPsynGL (GeneID 34054) | DRSC03027 | 6 | inactive |
| ATPsynGL (GeneID 34054) | DRSC28550 | 5 | inactive |
| Osi22 (GeneID 41632) | DRSC16442 | 8 | inactive |
| Osi22 (GeneID 41632) | DRSC27176 | 5 | inactive |
| ScsbetaA (GeneID 41067) | DRSC14446 | 3 | inactive |
| ScsbetaA (GeneID 41067) | DRSC27770 | 6 | inactive |
| DCTN6-p27 (GeneID 35195) | DRSC02609 | 45 | inactive |
| DCTN6-p27 (GeneID 35195) | DRSC22810 | 34 | inactive |
| DCTN6-p27 (GeneID 35195) | DRSC29904 | 11 | inactive |
| CG12863 (GeneID 36623) | DRSC06203 | 5 | inactive |
| CG6431 (GeneID 34476) | DRSC02956 | 5 | inactive |
| L (retired record) (GeneID 44831) | DRSC05966 | 6 | inactive |
| L (retired record) (GeneID 44831) | DRSC25281 | 3 | inactive |
| PPO1 (GeneID 37044) | DRSC05929 | 4 | inactive |
| CG40486 (GeneID 3355162) | DRSC20619 | 6 | inactive |
| CG34214 (GeneID 5740774) | DRSC04490 | 2 | inactive |
| beat-IIa (GeneID 42086) | DRSC14813 | 4 | inactive |
| beat-IIa (GeneID 42086) | DRSC14814 | 6 | inactive |
| Qsox4 (GeneID 318720) | DRSC14224 | 10 | inactive |
| Prosbeta6 (GeneID 39855) | DRSC11256 | 105 | inactive |
| Dnai2 (GeneID 39318) | DRSC10575 | 4 | inactive |
| Argl + CG9515 | DRSC03243 | 3 | inactive |
| Argl + CG9515 | DRSC03245 | 3 | inactive |
| chk (GeneID 35578) | DRSC04994 | 4 | inactive |
| CG31636 (GeneID 318865) | DRSC02276 | 11 | inactive |
| CG31636 (GeneID 318865) | DRSC24911 | 10 | inactive |
| CG14042 + SP555 | DRSC02367 | 6 | inactive |
| CG14042 + SP555 | DRSC03428 | 3 | inactive |
| Klp98A (GeneID 43310) | DRSC16724 | 16 | inactive |
| Klp98A (GeneID 43310) | DRSC21834 | 23 | inactive |
| mRpL40 (GeneID 41364) | DRSC15749 | 1 | inactive |
| mRpL40 (GeneID 41364) | DRSC27264 | 5 | inactive |
| mor (GeneID 41942) | DRSC15378 | 9 | inactive |
| mor (GeneID 41942) | DRSC27980 | 8 | inactive |
| Trissin (GeneID 41890) | DRSC14994 | 5 | inactive |
| CG3339 (GeneID 43295) | DRSC13821 | 14 | inactive |
| CG3339 (GeneID 43295) | DRSC15479 | 8 | inactive |
| CG1628 (GeneID 31990) | DRSC18109 | 9 | inactive |
| Nepl4 (GeneID 33889) | DRSC03239 | 4 | inactive |
| CG13891 (GeneID 38066) | DRSC08361 | 4 | inactive |
| CG13891 (GeneID 38066) | DRSC25733 | 9 | inactive |
| CG12992 (GeneID 32733) | DRSC19512 | 13 | inactive |
